Measurements: PubChem BioAssay AID1439 (NMMLSC, 2008)
In all, about 220,000 compounds went through this assay and about 770 (0.35%) were called active. The shares of active, inactive and inconclusive entries below differ from those in the screen. No stated cut-off is given here; in the data, active means binding response below about 49% or above about 150%; inconclusive means no clear call, values can overlap the other calls; inactive means in between.

By UniProt entry, the sequences of proteins in these tests, tags left out.
UniProt P09471, whole entry, looked up: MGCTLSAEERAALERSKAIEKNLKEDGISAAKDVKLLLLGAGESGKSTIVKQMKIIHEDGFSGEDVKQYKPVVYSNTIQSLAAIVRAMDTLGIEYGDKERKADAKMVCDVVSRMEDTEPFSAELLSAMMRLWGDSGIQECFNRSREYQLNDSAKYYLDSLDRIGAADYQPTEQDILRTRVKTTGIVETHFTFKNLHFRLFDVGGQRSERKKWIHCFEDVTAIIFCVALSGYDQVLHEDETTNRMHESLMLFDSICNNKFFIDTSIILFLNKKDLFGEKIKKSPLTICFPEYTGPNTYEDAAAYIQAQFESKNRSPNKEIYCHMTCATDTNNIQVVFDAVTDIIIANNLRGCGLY

Biological target: Guanine nucleotide-binding protein G(o) subunit alpha (Homo sapiens) (UniProt P09471)
Assay: compounds changing RGS7 association with Galphao – biochemical, multiplexed bead flow cytometry, primary screen (AID 1439);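 further: fluorescent Galphao held in activated GDP-AlF4 state binding bead-coupled RGS7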
Conditions: at 10 µM, actives lie on both sides

Row | SMILES | binding response (% of control)
1 | Cc1cccc(-n2c(O)c(C=NCCN3CCCCC3)c(=O)[nH]c2=O)c1 | inconclusive: 60.5%
2 | CCC(=NCc1cccnc1)c1c(O)n(-c2ccc(C)cc2)c(=O)[nH]c1=O | inconclusive: 113%
3 | COc1cccc(C(=O)N2CCC3(CC2)OCCO3)c1 | inconclusive: 70.5%
4 | CCN(CC)C(=O)c1ccc2c(c1)C1C(Cl)C(Sc3ccccc3[N+](=O)[O-])CC1C(C(=O)O)N2 (centres undefined) | inconclusive: 106%
5 | Cc1nc2ccccc2c(=O)n1-c1ccc(F)cc1F | inconclusive: 33.4%
6 | Cc1nn(Cc2ccccc2)c(C)c1C(=O)O | inactive: 103%
7 | Oc1ccc(C2NCc3ccccc3-n3cccc32)cc1Cl (centres undefined) | inconclusive: 63.9%
8 | CC1CN=C(NCc2ccc(F)cc2)S1 (centres undefined) | inactive: 97.8%
9 | Cc1cc(C)c(-n2c(O)c(/C=N/NC(=O)c3ccncc3)c(=O)[nH]c2=O)c(C)c1 | inconclusive: 71.5%
10 | COc1ccc(CCn2c(O)c(C=Nc3ccc(F)cc3)c(=O)[nH]c2=O)cc1OC | inconclusive: 106%
11 | c1ccc2c(c1)[nH]c1cnccc12 | inactive: 105%
12 | CN1C(=O)N(C)C(=O)C(CCc2ccncc2)(Cc2ccc3c(c2)OCO3)C1=O | inactive: 87.5%
13 | CNCCc1ccccc1 | inconclusive: 90.2%
14 | O=C(C[N+]12CCC(CC1)C(OC(=O)c1ccccc1)C2)c1ccc([N+](=O)[O-])cc1 (centres undefined) | inconclusive: 116%
15 | CCN1CCc2ccccc2C1 | inconclusive: 95.7%
16 | CC(=O)N1CC(=O)Nc2ccc(Cl)cc2C1c1ccc(F)cc1 (centres undefined) | active: 18.9%
17 | CC(=NCCN1CCOCC1)c1c(O)n(-c2ccccc2C)c(=O)[nH]c1=O | active: 9.19%
18 | COc1ccccc1Cn1c(SCC(=O)C(C)(C)C)nc2cc(C(=O)N3CCC4(CC3)OCCO4)ccc2c1=O | inactive: 96.6%
19 | CNCC1(c2ccccc2)CCCC1 | inactive: 99.8%
20 | CC1=C2C3OC(=O)C(C)C3CC[C@@]2(C)C=CC1=O (some centres undefined) | inconclusive: 264%
21 | O=[N+]([O-])c1cccc(CN2CCN(Cc3ccc(Br)cc3)CC2)c1 | inconclusive: 59.3%
22 | COc1ccc(OC)c(N2Cc3ccccc3C2=N)c1 | inactive: 98%
23 | Cn1c(O)c(/C=C2/C=CC=N2)c(=O)[nH]c1=O | inconclusive: 66.8%

Random excerpt: 4 entries already listed.
Row | SMILES | binding response (% of control)
18 | COc1ccccc1Cn1c(SCC(=O)C(C)(C)C)nc2cc(C(=O)N3CCC4(CC3)OCCO4)ccc2c1=O | inactive: 96.6%
16 | CC(=O)N1CC(=O)Nc2ccc(Cl)cc2C1c1ccc(F)cc1 (centres undefined) | active: 18.9%
9 | Cc1cc(C)c(-n2c(O)c(/C=N/NC(=O)c3ccncc3)c(=O)[nH]c2=O)c(C)c1 | inconclusive: 71.5%
4 | CCN(CC)C(=O)c1ccc2c(c1)C1C(Cl)C(Sc3ccccc3[N+](=O)[O-])CC1C(C(=O)O)N2 (centres undefined) | inconclusive: 106%

Remaining list, next part

Row | SMILES | binding response (% of control)
24 | CC1=CC(=C2C(=O)NC(=S)NC2=O)C=C(C(F)(F)F)N1CCc1ccccc1 | inactive: 105%
25 | CN(C)CCn1cnc2ccccc21 | inconclusive: 111%
26 | Cc1ccc(/C=C2\C(=O)NC(=O)N(CC3CCCO3)C2=O)s1 (centres undefined) | inconclusive: -170%
27 | CCn1c(O)c(/C=N/N2CCOCC2)c(=O)n(CC)c1=S | inactive: 87.6%
28 | CCCCCn1c(=O)c(C(=O)Nc2nc3ccccc3[nH]2)c(O)c2ccccc21 | inconclusive: 174%
29 | CCOc1ccc(C2CC(c3c(O)n(C)c(=O)n(C)c3=O)=NN2)cc1 (centres undefined) | inconclusive: 201%
30 | Cc1ccc(S(=O)(=O)Cc2ccc(C(=O)N3CCC4(CC3)OCCO4)o2)cc1 | inactive: 88.5%
31 | CC(Cc1ccccc1)NC(=O)/C=C/C(=O)O (centres undefined) | inactive: 98%
32 | O=C(/C=C/c1ccc2c(c1)OCO2)c1c(O)n(CCc2ccccc2)c(=O)[nH]c1=O | inconclusive: 119%
33 | CCC1C(c2ccccc2)NC(c2ccccc2)CC1(O)c1ccc(F)cc1 (centres undefined) | inconclusive: 72.3%
34 | Cc1c(C(c2ccc(F)cc2)c2c(O)c3ccccc3oc2=O)c(=O)n(-c2ccccc2)n1C (centres undefined) | active: 37.7%
35 | O=c1c2ccccc2[nH]c(=S)n1-c1cccnc1 | inconclusive: 83.8%
36 | CC12CN3CC(C)(CN(C1)C3c1cccs1)C2=O (centres undefined) | inconclusive: 101%
37 | Cc1cccc(OP(N)(=O)Oc2cccc(C)c2)c1 | inconclusive: 105%
38 | O=C(N/N=C/c1c(O)n(-c2cccc3ccccc23)c(=O)[nH]c1=O)c1ccncc1 | inconclusive: 97.9%
39 | CCN1CCN(C(c2cccs2)C(C)NC(=O)Oc2ccccc2)CC1 (centres undefined) | inactive: 96.2%
40 | CCSc1cc(C2C(C#N)=C(N)Oc3n[nH]c(C)c32)c(C)o1 (centres undefined) | inactive: 98.1%
41 | O=C1NC(=O)N(Cc2ccc(F)cc2)C(=O)/C1=C\C=C\c1ccco1 | inconclusive: 119%
42 | O=C1NC(=O)N(CCc2ccc(F)cc2)C(=O)/C1=C/C=C/c1ccccc1 | inconclusive: 78.9%
43 | CCOc1ccc(-c2c(C)n(-c3ccc(OCC)cc3)c3[n+]2CCCCC3)cc1 | inconclusive: -36.6%
44 | O=C1C2CCN(CC2)C1Cc1ccc(OCc2ccccc2)cc1 (centres undefined) | inconclusive: 85.9%
45 | CC(C)CCNC(=O)CN1C(=O)CN=C(c2ccccc2)c2ccccc21 | inconclusive: 97.6%
46 | Cc1nn(Cc2ccccc2)c(Cl)c1C(=O)OCC(=O)N1CCCC1 | inactive: 98.9%

Row | SMILES | binding response (% of control)
47 | CC(=O)Nc1cc([As](=O)(O)O)ccc1O | inconclusive: 124%
48 | CN1C2c3ccccc3C3C4c5ccccc5C(C31)C(C2[N+](=O)[O-])N4C (centres undefined) | inconclusive: -8.98%
49 | CCCCCCNC(=O)N[C@@H](Cc1ccc(O)cc1)C(=O)NCCC[C@H]1CN2C(=NC[C@H]2C)N1CC1CCC1 | inconclusive: 52.1%
50 | CCOP(=O)(OCC)C(O)c1ccc(N(C)C)cc1 (centres undefined) | inconclusive: 93.3%
51 | CCCCCCn1c(O)c(C=Nc2ccccc2N2CCOCC2)c(=O)[nH]c1=S | inconclusive: 139%
52 | COc1ccccc1-n1c(O)c(/C=N/NC(=S)Nc2ccccc2)c(=O)[nH]c1=S | inconclusive: -325%
53 | Cc1ccc(-n2c(O)c(C=Nc3ccc(S(=O)(=O)N(C)C)cc3)c(=O)[nH]c2=O)cc1 | inactive: 93.5%
54 | O=P(Oc1ccccc1)(Oc1ccccc1)N1CCN(c2ccc(F)cc2)CC1 | inconclusive: 98.7%
55 | CCOC(=O)C1=C(N)OC2=C(C(=O)CCC2)[C@]12C(=O)N(CC(N)=O)c1ccccc12 | inconclusive: 87.9%
56 | CC(CCc1ccccc1)NCCC#N (centres undefined) | inconclusive: 75.5%
57 | CCC(C)C1NC(=O)C(C(C)=O)=C1O (centres undefined) | inconclusive: 36.2%
58 | CCCCCCC(=O)c1c(O)n(-c2ccc(OC)cc2)c(=O)[nH]c1=O (tested in a mixture with another compound) | inconclusive: 68.5%
59 | C#CCOc1cc(C2C3=C(COC3=O)Nc3cc4c(cc32)OCO4)ccc1OC (centres undefined) | inconclusive: 94.7%
60 | Cc1cccc(-n2c(-c3ccccc3)nc3ccccc3c2=O)n1 | inactive: 88.2%
61 | COc1cc2c(cc1OC)C(c1c(O)n(CCc3ccccc3)c(=S)[nH]c1=O)NCC2 (centres undefined) | inconclusive: 123%
62 | Cc1cc(C=C2C(=O)N(C)C(=S)N(C)C2=O)c(C)n1-c1ccncc1 | inconclusive: -119%
63 | O=C(Nc1c(F)cc(F)cc1F)c1cccn(Cc2ccccc2)c1=O | inconclusive: 98.6%
64 | C=C(COC(=O)CCC(=O)O)CC1CC(O)[C@]2(C)OC3CC4OC5C[C@]6(C)O[C@]7(C)CCC8OC9C[C@]%10(C)OC%11C(C)=CC(=O)OC%11CC%10OC9C[C@@H](C)C8OC7CC6O[C@]5(C)C/C=C\C4OC3CC2O1 (some centres undefined) | inconclusive: 96.7%
65 | CC[N+](CC)(CC#CCO)CC#Cc1ccccc1 | inactive: 104%
66 | Cn1c(O)c(/C=N/N2CCOCC2)c(=O)[nH]c1=S | inconclusive: 42.8%
67 | O=C1C2CCN(CC2)C12CC2c1ccc(C(F)(F)F)cc1 (centres undefined) | inconclusive: 119%
68 | NC(Cc1ccccc1)c1nc(-c2ccccc2)no1 (centres undefined) | inconclusive: 91.5%
69 | O=C1CN=C(c2ccccc2)c2cc(Br)ccc2N1Cc1cc(=O)n2ccccc2n1 | inactive: 107%

Row | SMILES | binding response (% of control)
70 | CC(=NCC1CCCO1)c1c(O)n(-c2ccccc2C)c(=O)[nH]c1=O (centres undefined) | inconclusive: 212%
71 | COc1ccc(CCNC2CCCCC2)cc1 | inconclusive: 98.8%
72 | CN1C(=O)/C(=C/C=C/c2ccco2)C(=O)NC1=S | inconclusive: 93.3%
73 | COc1ccc2ccc(O)c(CN3CC=C(c4ccccc4)CC3)c2c1 | inconclusive: 106%
74 | CCCCn1c(O)c(/C=C/C=Nc2ccccc2)c(=O)[nH]c1=O | inactive: 100%
75 | N#CC(C#N)=Cc1ccc(N2CCOCC2)cc1 | inconclusive: 126%
76 | CNC(=O)N(C)c1ccc(C(O)(C(=O)OC)C(F)(F)F)cc1 (centres undefined) | inconclusive: 124%
77 | C=CCn1c(O)c(/C(CC)=N/NC(=S)Nc2ccccc2)c(=O)[nH]c1=O | inconclusive: 110%
78 | C=CCn1c(O)c(C(CC)=Nc2cccc(C(=O)O)c2)c(=O)[nH]c1=O | inconclusive: 125%
79 | O=c1c2ccccc2[nH]c(=S)n1-c1ccc2c(c1)OCCO2 | inconclusive: 94.5%
80 | CC(=O)c1cc(C(C)=O)c(C)[n+](C)c1C | inconclusive: 80.3%
81 | Cn1cccc1/C=C1/C(=O)NC(=S)N(Cc2ccc(F)cc2)C1=O | inconclusive: 103%
82 | COC12C(COC(N)=O)C3=C(C(=O)C(C)=C(N)C3=O)N1CC1C2N1C (centres undefined) | inconclusive: 96.4%
83 | CCOC(=O)CC(NC(=O)C(Cc1ccc(N(CCCl)CCCl)cc1)NC(C)=O)C(=O)OCC (centres undefined) | inactive: 101%
84 | COCc1cc(OC(=O)N(C)C)nc(-c2ccc(C)c(Cl)c2)n1 | inconclusive: 73.5%
85 | CCC(=NCCCn1ccnc1)c1c(O)n(-c2ccccc2)c(=O)[nH]c1=O | inconclusive: 8.46%
86 | C=CCn1c(O)c(C(C)=NCc2cc(OC)cc(OC)c2)c(=O)[nH]c1=O | inactive: 101%
87 | S=C1NC2(CCCCC2)NC12CCCCC2 | inconclusive: 44.3%
88 | Cc1ccc(Cc2c(C)nc3nc(SCC(=O)N4CCC5(CC4)OCCO5)nn3c2C)cc1 | inactive: 97.8%
89 | O=C1/C(=C\c2ccc(Cl)cc2Cl)N2CCC1CC2 | inconclusive: 108%
